Measured values taken from PubChem BioAssay AID651664 (NMMLSC, 2012).
In all, about 1,800 compounds went through this assay and fewer than 10 were called active.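 The calls were made as follows: active = inhibition of granule release above a set limit; inactive = the rest.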 Some of the results follow.

Test: inhibitors of lytic granule exocytosis, flow cytometry, TALL-104 cells, validation set (AID 651664)
Details: TALL-104 LAMP-1 externalization, at 15.2 µM, stronger effect = higher value, stimulated with thapsigargin and PMA

inhibition, inactive:
Cc1oc(C(C)(C)C)cc1C(=O)Nc1ccc2c(c1)OCCO2 -1.2%
CCOC(=O)C(CC)(CC)C(=O)/C=C/c1ccc(Br)cc1 2.5%
Cc1cccc(N/C=C/c2onc(C)c2[N+](=O)[O-])c1 0.2%
Clc1ccc(Oc2cnns2)cc1Cl 0.6%
COc1ccc(CNC(=O)CN2C(=O)C(C)N(c3ccc(C)cc3)C2=O)cc1 (centres undefined) 1.9%
CC1CN(C(=O)CCc2ccccc2)C(C)CN1C(=O)CCc1ccccc1 (centres undefined) 0.2%
Cc1nc2scc(-c3cccs3)c2c(=O)o1 -3.2%
Cc1ccc(C(=O)N/C(=C/c2ccco2)C(=O)NCCc2c[nH]c3ccccc23)cc1C 1.6%
Cc1nn(-c2ccccc2)c(C)c1/C=N/O -0.7%
CC(C)n1c(-c2cccs2)nc2ccccc21 1.1%
O=C(CSc1nnnn1-c1cccc2c1CCCC2)NC1CCCC1 -1.9%
O=C(Cc1ccccc1)N1CCC(C(=O)N2CCN(c3ccc(F)cc3)CC2)CC1 3.1%
c1nnnn1C12CC3CC(CC(C3)C1)C2 3.1%
O=C(CSc1n[nH]c(-c2ccc(Cl)cc2Cl)n1)Nc1ccccn1 -0.7%
COC(=O)c1ccc(=O)n(Cc2ccc3c(c2)OCO3)c1 -2.2%
Cc1ccc(Cn2c(NCCCn3ccnc3)nc3c2c(=O)n(C)c(=O)n3C)cc1 -1%
CN(C)CCCn1c(N)c(C#N)c2nc(C#N)c(C#N)nc21 -4.1%
Cc1ccccc1S(=O)(=O)Cc1ccc(C(=O)NCCN2CCCCC2C)o1 (centres undefined) -1.1%
O=C(N/N=C/c1ccc(O)cc1)c1ccc(NC(=O)c2ccccc2Br)cc1 2.1%
CCOC(=O)c1c(C)n(C)c2ccc(O)c(CN(C)C)c12 20.7%
COc1ccc(C2CC(c3c(-c4ccccc4)c4cc(Cl)ccc4[nH]c3=O)=NN2S(C)(=O)=O)cc1OC (centres undefined) -1.3%
O=C(CCCN1C(=O)c2cccc3cccc(c23)C1=O)N1CCc2ccccc2C1 -1.6%
COC(=O)CN1C(=O)CSc2ncccc21 0.6%
Cc1ccccc1NC(=O)c1nc[nH]c1C(=O)NCc1ccccc1 2.2%
COc1cccc2cc(C(=O)Nc3cccc(C)n3)c(=O)oc12 4.9%
CC(CSc1nc2ccccc2s1)Cn1c(N2CCCC2)nc2c1c(=O)[nH]c(=O)n2C (centres undefined) -0.5%
CCc1cc(C(c2ccc(F)cc2)N2CCOCC2)c(NC(=O)c2ccccc2)s1 (centres undefined) 7.6%
CCOC(=O)c1c(C)n(C)c2ccc(OCCN(C)C)cc12 7.6%
O=C(NCCc1ccc(F)cc1)c1cccs1 0.6%
Cc1ccc(CNC(=O)C2CC(=O)N(C3CCCCCCC3)C2)cc1 (centres undefined) -2.7%
Cc1cc(C)n2[nH]c(=O)c(N=Nc3cccc(Cl)c3)c2n1 -3.3%
O=C1c2ccccc2C(=O)N1CCC(c1ccc(F)cc1)c1ccco1 (centres undefined) 0.1%
COc1ccc(CC(=O)NC(C)c2nnc(SCc3nc4ccccc4c(=O)[nH]3)n2C)cc1 (centres undefined) 0.7%
O=c1c2cnn(-c3ccccc3)c2ncn1Cc1cccnc1 -0.5%
COc1ccccc1C(=O)Nc1cc(Cl)ccc1O -2.7%
O=C(Nc1ccccc1)N1CCSCC1 -3.9%
CCOC(=O)C1CCN(CC(=O)Nc2c(C(=O)OC)[nH]c3ccc(Cl)cc23)CC1 -3.8%
O=C(CCCN1C(=O)C2CCCCN2C1=O)N1CCN(c2ccc([N+](=O)[O-])cc2)CC1 (centres undefined) -3.3%
CCOC(=O)Cc1c(C)nc2c(-c3ccc(Cl)cc3)c[nH]n2c1=O -2.3%
O=C1c2ccccc2-c2nnc(-c3ccccc3)cc21 -4.3%
CC1=CC=CN2CC(O)CN=C12 (centres undefined) 1%
CC1(C)C(=O)N(OCc2ccccc2)C(C)(C)C(=O)N1OCc1ccccc1 -2.5%
CCOc1ccccc1NC(=O)c1cccnc1 -2.6%
O=S(=O)(NCc1ccccc1)c1cccs1 -1.5%
O=C(CSc1ncn[nH]1)NC12CC3CC(CC(C3)C1)C2 2.2%
CN(C)/C=N/C(=S)Nc1ccccc1F -0.8%
CC(O)c1c(OCc2ccccc2)ncnc1OCc1ccccc1 (centres undefined) 2.8%
CC1CCCC(NC(=O)COC(=O)c2c[nH]c(=O)[nH]c2=O)C1C (centres undefined) -2.4%
Cc1[nH]c2ccccc2c1C(=O)COC(=O)C1CC(=O)N(Cc2ccccc2)C1 (centres undefined) -2.1%
COCCN(C(=O)c1ccco1)c1nnc(-c2ccc(OC)c(OC)c2)s1 0.9%
Nc1ccc2c(c1)C(=O)N(CCCC(=O)O)C2=O -1.7%
O=c1[nH]c2cccnc2n1Cc1ccccc1 4.3%
CCOc1ccc(C(=O)COc2ccc(NC(C)=O)cc2)cc1 -3.8%
Cc1nc2ccc(S(=O)(=O)N(C)CC(=O)N3CCc4ccccc4C3)cc2s1 3.6%
O=c1c2c([nH]c3ccc(Br)cc13)CCCC2 4.2%
O=C(NCC1CCCO1)c1ccc2c(c1)C(=O)N(C1CCCCC1)C2=O (centres undefined) -1.5%
COc1ccccc1C(c1nnnn1C(C)(C)C)N1CCCc2ccccc21 (centres undefined) 4.7%
c1ccc(COc2ccc(-c3csnn3)cc2)cc1 -0.3%
Cc1ccc(S(=O)(=O)N2CCN(C(C)C(=O)N3CCCc4ccccc43)CC2)cc1 (centres undefined) -2.3%
Cn1cc(C(=O)c2ccc(Cl)cc2Cl)cc1C(=O)N/N=C(\N)COc1ccccc1 -1.3%
CCOC(=O)c1sc2nc(CC(=O)OC)nc(NCc3ccco3)c2c1C -2.3%
O=C(Nc1cccc(Cl)c1)Nc1nc(-c2ccc(Cl)cc2)cs1 -1.9%
C=CCOn1c(=O)c(-c2ccc(OC)cc2)[n+]([O-])c2ccccc21 2.5%
COc1cccc(C(C)NC(=O)Nc2cccc(C(F)(F)F)c2)c1 (centres undefined) 0.9%
COc1ccc(-c2nc3n(c(=O)c2C#N)CCCS3)cc1 1.5%
O=C1c2ccccc2-c2c1nc1c([n+]2[O-])CCCC1 -5.1%
CC(C)c1nnc(NC(=O)c2c(O)c3cccc4c3n(c2=O)CCC4)s1 2.7%
Fc1ccc(CSc2nnc(CN3CCOCC3)n2-c2ccccc2)c(Cl)c1 -2.2%
Cn1c(Cl)c(C(=O)Nc2ccccc2)c2ccccc21 -1.3%
O=C(CC(=O)NC1CCCCC1)N/N=C/c1cccc2ccccc12 0.1%
COc1cccc(CNCCc2c[nH]c3ccccc23)c1OCc1ccc(F)cc1 6.3%
Brc1ccc(-c2nc(-c3ccccn3)no2)o1 -2.5%
O=C(/C=C/Nc1cccc(C(F)(F)F)c1)c1ccc(Oc2ncccn2)cc1 -1%
O=C(NCc1cccnc1)c1ccc(CS(=O)(=O)Cc2ccc(Cl)cc2)o1 -2.8%
CCC(C)(C)C1CCC2(CC1)NC(CO)(CO)CO2 (centres undefined) -0.4%
CCOC(=O)c1c(-c2cccs2)csc1NC(=O)CN1CCOCC1 -3.3%
Cc1ccc2nc(C)cc(N3CCOCC3)c2c1 -0.9%
Cc1cc2c(cc1C)NC(c1cccnc1)C1=C(CC(C)(C)CC1=O)N2 (centres undefined) -3.9%
O=C1CSC(=NC2CCCCC2)N1 3.9%
Cc1oc2nc(SCCCC(=O)NCCO)nc(N)c2c1C 2.7%
CC(C)OC(=O)NCN1C(=O)C2C3C=CC(C3)C2C1=O (centres undefined) 0%
CCN(CC)CCNC(=O)c1ccc(N2CCCCC2)c(NS(=O)(=O)c2ccc(C)cc2)c1 1.6%
Clc1ccc(CSc2nnc(NC3=NCCCCC3)s2)cc1 -2.4%
N#Cc1cnn(-c2nc3sc4c(c3c(=O)[nH]2)CCCC4)c1N 2.3%
COc1ccc(N2C(=O)C(Cl)=C(Nc3ccccc3O)C2=O)cc1 0.2%
O=[n+]1c2c(n([O-])c3cc(Br)ccc31)CCC2 -1%
Clc1cnc(N/N=C/c2cccs2)c(Cl)c1 0.4%
CCOC(=O)c1sc(NC(=O)CSc2nnnn2-c2ccc(C)c(C)c2)nc1C -1.4%
COC(=O)c1nn(C23CC4CC(CC(C4)C2)C3)c2c1C(=O)N(c1ccc(Br)cc1)C2=O -3%
CCCCCc1nc2sc3c(c2c(=O)n1N)CCC3 4.8%
CS(=O)(=O)N(CC(=O)Nc1ccccc1Sc1ccccc1)c1ccc(F)cc1 6.1%
CC1(C)CC2(CC(C)(C)NC(=O)N2)NC(=O)N1 1.8%
Cc1cccc(N2CCN(CC(=O)Nc3ccc(-n4cnnn4)cc3)CC2)c1C -0.6%
COc1cc2c(cc1OC)CN(C(=O)c1cc(=O)c3ccccc3o1)CC2 -1.9%
CCCOc1ccccc1N/C(=N\S(=O)(=O)c1ccc(C)cc1)Nc1nc(C)cc(C)n1 -1.5%
COc1cccc(OC)c1C(=O)Nc1cc(C)on1 -2.4%
Cc1ccc(C(=O)NC(=S)Nc2ccc(-c3cc4ccccc4oc3=O)cc2)c(C)c1 -0.7%
CC(C)c1nc(SCC(=O)Nc2ccc3c(c2)OCO3)n[nH]1 -1.1%
CCCSc1cc(N2CCN(C)CC2)nc(-c2ccc(OC)cc2)n1 0.9%

A portion from the list above, for reference:
inhibition, inactive:
Cc1ccc(CNC(=O)C2CC(=O)N(C3CCCCCCC3)C2)cc1 (centres undefined) -2.7%
Cc1cc(C)n2[nH]c(=O)c(N=Nc3cccc(Cl)c3)c2n1 -3.3%
O=C1c2ccccc2C(=O)N1CCC(c1ccc(F)cc1)c1ccco1 (centres undefined) 0.1%
COc1ccc(CC(=O)NC(C)c2nnc(SCc3nc4ccccc4c(=O)[nH]3)n2C)cc1 (centres undefined) 0.7%
O=c1c2cnn(-c3ccccc3)c2ncn1Cc1cccnc1 -0.5%
COc1ccccc1C(=O)Nc1cc(Cl)ccc1O -2.7%
O=C(Nc1ccccc1)N1CCSCC1 -3.9%
